Laboratory results: PubChem BioAssay AID1259308 (NCATS, 2017)
Purpose: 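Candidate targets for better recombinant protein yield in mammalian cells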 (primary screen). System: human HEK293 embryonic kidney cells stably expressing firefly luciferase (HEK-CMV-Luc2-Hygro). Reagents: single siRNA against human genes, 0.8 pmol siRNA per well. Timing: 72 h. Measurement: 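Luciferase light (ONE-Glo) measured on one replicate plate set and viability (CellTiter-Glo) on the other, scaled to a negative control siRNA, with robust z-scores and luciferase per cell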. Reading the numbers: total luciferase, z-score: higher = more reporter protein produced. Rule for the call: 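An siRNA counts as active if its total luciferase robust z-score exceeds 3; genes with two or more such siRNAs out of three were retested with fresh siRNAs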. Calls: active = raised luciferase; inactive = no rise.
Shown is an unselected part of about 59,000 deposited reagents. In the full data, about 1,510 (2.6%) got an active call. 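Calls use total luciferase alone and ignore viability, so some active siRNAs may act by altering cell number.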 Reagents against one gene are numbered here. Not all columns of the deposit are shown.

Against UPRT (GeneID 139596) #1, the values are total luciferase, z-score -1.15; inactive.
Against UPRT (GeneID 139596) #2, the entry reads total luciferase, z-score -0.583; inactive.
For UPRT (GeneID 139596) #3, the entry reads total luciferase, z-score 1.49; inactive.
Depletion of OR52B4 (GeneID 143496) #1 came out at: total luciferase, z-score 1.07; inactive.
With knock-down of OR52B4 (GeneID 143496) #2 the results were total luciferase, z-score -0.152; inactive.
After knock-down of OR52B4 (GeneID 143496) #3 the results were total luciferase, z-score 0.0231; inactive.
With knock-down of ZNF100 (GeneID 163227) #1, the screen gave total luciferase, z-score -0.273; inactive.
ZNF100 (GeneID 163227) #2 gave total luciferase, z-score -0.247; inactive.
For ZNF100 (GeneID 163227) #3, the entry reads total luciferase, z-score -2.13; inactive.
After knock-down of NECAB3 (GeneID 63941) #1 the results were total luciferase, z-score -0.345; inactive.
For NECAB3 (GeneID 63941) #2, the entry reads total luciferase, z-score 0.0273; inactive.
Depletion of NECAB3 (GeneID 63941) #3 gave: total luciferase, z-score 0.587; inactive.
Knock-down of HAUS6 (GeneID 54801) #1 resulted in: total luciferase, z-score 1.01; inactive.
After knock-down of HAUS6 (GeneID 54801) #2, the record shows total luciferase, z-score -0.488; inactive.
For HAUS6 (GeneID 54801) #3, the entry reads total luciferase, z-score -0.54; inactive.
MCM5 (GeneID 4174) #1 scored total luciferase, z-score 4.2; active.
MCM5 (GeneID 4174) #2 scored total luciferase, z-score 0.595; inactive.
MCM5 (GeneID 4174) #3 gave total luciferase, z-score 0.2; inactive.
EML4 (GeneID 27436) #1 showed total luciferase, z-score 1.03; inactive.
EML4 (GeneID 27436) #2 scored total luciferase, z-score -0.706; inactive.
Against EML4 (GeneID 27436) #3, the values are total luciferase, z-score -0.088; inactive.
With knock-down of HTATIP2 (GeneID 10553) #1, the record shows total luciferase, z-score -1.27; inactive.
Against HTATIP2 (GeneID 10553) #2 the deposit lists total luciferase, z-score 2.34; inactive.
For HTATIP2 (GeneID 10553) #3 the deposit lists total luciferase, z-score -0.408; inactive.
For GRINA (GeneID 2907) #1, the entry reads total luciferase, z-score -1.45; inactive.
Silencing of GRINA (GeneID 2907) #2 resulted in: total luciferase, z-score -1.31; inactive.
With knock-down of GRINA (GeneID 2907) #3 the results were total luciferase, z-score 1.48; inactive.
FOXP3 (GeneID 50943) #1 gave total luciferase, z-score -0.146; inactive.
With knock-down of FOXP3 (GeneID 50943) #2, the record shows total luciferase, z-score -1.4; inactive.
Depletion of FOXP3 (GeneID 50943) #3 came out at: total luciferase, z-score -1; inactive.
TAF6 (GeneID 6878) #1 gave total luciferase, z-score -0.403; inactive.
Knock-down of TAF6 (GeneID 6878) #2 resulted in: total luciferase, z-score -1.77; inactive.
For TAF6 (GeneID 6878) #3, the entry reads total luciferase, z-score 0.264; inactive.
Against SAMD9 (GeneID 54809) #1, the values are total luciferase, z-score -0.00646; inactive.
For SAMD9 (GeneID 54809) #2 the deposit lists total luciferase, z-score -1.22; inactive.
Knock-down of SAMD9 (GeneID 54809) #3 gave: total luciferase, z-score -0.447; inactive.
Against TENM4 (GeneID 26011) #1 the deposit lists total luciferase, z-score 0.328; inactive.
After knock-down of TENM4 (GeneID 26011) #2 the results were total luciferase, z-score -0.473; inactive.
TENM4 (GeneID 26011) #3 scored total luciferase, z-score 2.37; inactive.
After knock-down of RIBC2 (GeneID 26150) #1, the screen gave total luciferase, z-score 0.47; inactive.
RIBC2 (GeneID 26150) #2 showed total luciferase, z-score -0.288; inactive.
For RIBC2 (GeneID 26150) #3 the deposit lists total luciferase, z-score -0.344; inactive.

Active calls (from the list above):
MCM5 (GeneID 4174) #1 — total luciferase, z-score: 4.2; Outcome: active
